Source: the supplement of paper PMC11438910
The list shows a part of the results. Most of these values are background signal.

Assays:
Test in all cases: fluorescence intensity of antibody binding to polysaccharide-coupled beads; higher = stronger binding
[1] = molecular target: pneumococcal polysaccharide Pn19B
Description: (§1)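 Recombinant rhesus-murine chimeric IgG1 antibodies were tested against antigen-coupled MagPlex beads in a 96-plex Luminex direct immunoassay (dLIA). The beads carried pneumococcal capsular polysaccharides of 93 serotypes plus C-polysaccharides. Antibody was added at 0.1–12,500 ng/mL for 1 h, then PE anti-mouse IgG, and net MFI was read on a Bio-Plex 3D. Only the rhesus variable regions are printed; constant regions are murine IgG1/kappa/lambda, and the signal peptide is MGWSCIILFLVATATGVHS.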

[2] = molecular target: pneumococcal polysaccharide Pn19C
Description: as §1

[3] = molecular target: pneumococcal polysaccharide Pn19F
Description: as §1

[4] = molecular target: pneumococcal polysaccharide Pn2
Description: as §1

[5] = molecular target: pneumococcal polysaccharide Pn20A
Description: as §1

[6] = molecular target: pneumococcal polysaccharide Pn20B
Description: as §1

[7] = molecular target: pneumococcal polysaccharide Pn21
Description: as §1

[8] = molecular target: pneumococcal polysaccharide Pn22A
Description: as §1

[9] = molecular target: pneumococcal polysaccharide Pn22F
Description: as §1

[10] = molecular target: pneumococcal polysaccharide Pn23A
Description: as §1

[11] = molecular target: pneumococcal polysaccharide Pn23B
Description: as §1

[12] = molecular target: pneumococcal polysaccharide Pn23F
Description: as §1

[13] = antibody concentration 0.1 ng/mL
[14] = antibody concentration 0.534724 ng/mL
[15] = antibody concentration 2.8593 ng/mL
[16] = antibody concentration 15.2894 ng/mL
[17] = antibody concentration 81.7561 ng/mL
[18] = antibody concentration 437.17 ng/mL
[19] = antibody concentration 2337.65 ng/mL
[20] = antibody concentration 12500 ng/mL

B1: 4-99.4 (protein)
chain 1: QVQLQESGPGLVKPSETLSLTCAVSGYSISSAYFWGWIRQPPGKGLEYIGYISGEGGKSYYNPSLMSRVTISKDTSKNQFSLKLNTVTAADTAVYYCARRAILVGFDLWGQGVLVTVSS
chain 2: QAAPTQPPSVSGSPGQSVTISCTGSNSDIGYYNAVSWYQQHPGKAPKLMIYEVSKRPSGVSDRLTGSKSGNTASLTISGLQAEDEADYYCSSYAGSNTYIFGTGTRLTVL
fluorescence intensity [1, 13]: 28 MFI | fluorescence intensity [1, 14]: 31 MFI | fluorescence intensity [1, 15]: 29.5 MFI | fluorescence intensity [1, 16]: 28.5 MFI | fluorescence intensity [1, 17]: 29 MFI | fluorescence intensity [1, 18]: 30 MFI | fluorescence intensity [1, 19]: 35.5 MFI | fluorescence intensity [1, 20]: 118 MFI | fluorescence intensity [2, 13]: 28.5 MFI | fluorescence intensity [2, 14]: 26.5 MFI | fluorescence intensity [2, 15]: 23.5 MFI | fluorescence intensity [2, 16]: 25 MFI | fluorescence intensity [2, 17]: 25.5 MFI | fluorescence intensity [2, 18]: 26.5 MFI | fluorescence intensity [2, 19]: 31.5 MFI | fluorescence intensity [2, 20]: 77.2 MFI | fluorescence intensity [3, 13]: 27 MFI | fluorescence intensity [3, 14]: 26 MFI | fluorescence intensity [3, 15]: 26.5 MFI | fluorescence intensity [3, 16]: 27 MFI | fluorescence intensity [3, 17]: 27.5 MFI | fluorescence intensity [3, 18]: 27.2 MFI | fluorescence intensity [3, 19]: 30.5 MFI | fluorescence intensity [3, 20]: 48.5 MFI | fluorescence intensity [4, 13]: 20.5 MFI | fluorescence intensity [4, 14]: 21.5 MFI | fluorescence intensity [4, 15]: 20.8 MFI | fluorescence intensity [4, 16]: 18.5 MFI | fluorescence intensity [4, 17]: 19.5 MFI | fluorescence intensity [4, 18]: 22 MFI | fluorescence intensity [4, 19]: 24.5 MFI | fluorescence intensity [4, 20]: 32 MFI | fluorescence intensity [5, 13]: 24.5 MFI | fluorescence intensity [5, 14]: 23.5 MFI | fluorescence intensity [5, 15]: 22.8 MFI | fluorescence intensity [5, 16]: 22.5 MFI | fluorescence intensity [5, 17]: 22.5 MFI | fluorescence intensity [5, 18]: 23 MFI | fluorescence intensity [5, 19]: 27.8 MFI | fluorescence intensity [5, 20]: 75 MFI | fluorescence intensity [6, 13]: 24.5 MFI | fluorescence intensity [6, 14]: 25 MFI | fluorescence intensity [6, 15]: 22.5 MFI | fluorescence intensity [6, 16]: 22.5 MFI | fluorescence intensity [6, 17]: 24 MFI | fluorescence intensity [6, 18]: 23.8 MFI | fluorescence intensity [6, 19]: 25.5 MFI | fluorescence intensity [6, 20]: 35.5 MFI | fluorescence intensity [7, 13]: 19 MFI | fluorescence intensity [7, 14]: 20.8 MFI | fluorescence intensity [7, 15]: 20.5 MFI | fluorescence intensity [7, 16]: 18.8 MFI | fluorescence intensity [7, 17]: 20.5 MFI | fluorescence intensity [7, 18]: 19.5 MFI | fluorescence intensity [7, 19]: 19.8 MFI | fluorescence intensity [7, 20]: 26.5 MFI | fluorescence intensity [8, 13]: 22.8 MFI | fluorescence intensity [8, 14]: 22.8 MFI | fluorescence intensity [8, 15]: 21 MFI | fluorescence intensity [8, 16]: 21.2 MFI | fluorescence intensity [8, 17]: 22 MFI | fluorescence intensity [8, 18]: 21.8 MFI | fluorescence intensity [8, 19]: 22.5 MFI | fluorescence intensity [8, 20]: 39.5 MFI | fluorescence intensity [9, 13]: 29.5 MFI | fluorescence intensity [9, 14]: 30.8 MFI | fluorescence intensity [9, 15]: 31.5 MFI | fluorescence intensity [9, 16]: 30.8 MFI | fluorescence intensity [9, 17]: 31.2 MFI | fluorescence intensity [9, 18]: 33.2 MFI | fluorescence intensity [9, 19]: 32.2 MFI | fluorescence intensity [9, 20]: 41.5 MFI | fluorescence intensity [10, 13]: 26 MFI | fluorescence intensity [10, 14]: 28.8 MFI | fluorescence intensity [10, 15]: 27.5 MFI | fluorescence intensity [10, 16]: 24.5 MFI | fluorescence intensity [10, 17]: 29.5 MFI | fluorescence intensity [10, 18]: 31.8 MFI | fluorescence intensity [10, 19]: 40.8 MFI | fluorescence intensity [10, 20]: 88.5 MFI | fluorescence intensity [11, 13]: 31.2 MFI | fluorescence intensity [11, 14]: 32 MFI | fluorescence intensity [11, 15]: 30.5 MFI | fluorescence intensity [11, 16]: 31 MFI | fluorescence intensity [11, 17]: 31 MFI | fluorescence intensity [11, 18]: 32 MFI | fluorescence intensity [11, 19]: 32.8 MFI | fluorescence intensity [11, 20]: 38.2 MFI | fluorescence intensity [12, 13]: 17 MFI | fluorescence intensity [12, 14]: 19 MFI
